According to article PMC12493166, “The ClpA chaperone and the two adaptor proteins modulate the fate of the model substrate tagged with a SsrA-degron of Leptospira” (Biochemical Journal, 2025):
No constants are given. Whether binding was seen depends on the method and setting. A result given as binding can be weak or reduced; the word gives no strength.

Legend:
[1] = target: T1, LinClpS2 (Clp adaptor protein ClpS2 of Leptospira interrogans) (L. interrogans serovar Copenhageni strain Fiocruz L1-130) (UniProt Q72RD1); test: ELISA; LinClpP1, LinClpP2, LinClpS1 or LinClpS2 (1 μM/well) coated overnight at 4°C; blocked with 3% BSA in PBS; ATP-bound LinClpA or LinClpA^∆N (0–3 μM) overlaid 2 hours at 37°C; detected with mouse anti-LinClpA; Kd by Hill plot analysis; both purified
T1 sequence: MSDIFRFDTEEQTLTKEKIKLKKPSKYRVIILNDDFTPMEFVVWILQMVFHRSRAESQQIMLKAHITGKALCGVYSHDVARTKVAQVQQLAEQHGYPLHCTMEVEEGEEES

[2] = target: T2, LinClpP2 (ClpP2 isoform of the Clp protease of Leptospira interrogans) (L. interrogans) (UniProt Q72R01); test: ELISA; LinClpA–LinClpP (1 μM) in the presence and absence of nucleotides (2 mM: ATP, CTP, GTP and UTP); Supplementary Figure S5B; both purified
T2 sequence: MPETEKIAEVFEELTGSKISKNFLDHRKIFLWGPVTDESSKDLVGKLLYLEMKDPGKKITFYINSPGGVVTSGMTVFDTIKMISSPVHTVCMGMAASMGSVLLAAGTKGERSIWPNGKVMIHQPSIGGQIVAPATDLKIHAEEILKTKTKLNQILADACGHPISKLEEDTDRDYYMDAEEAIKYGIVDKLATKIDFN

| Substance | binding [1] | binding [2] |
| --- | --- | --- |
| LinClpA^∆N (N-domain-deleted variant of LinClpA) (domain or fragment) | binds |  |
| LinClpA (ClpA ATPase chaperone of Leptospira interrogans) (enzyme) |  | binds |
